For four substances, binding results are on record in paper doi:10.1101/2022.02.18.480778.

Chains of the proteins cited; added tags and fusions are not shown.
UniProt O00571: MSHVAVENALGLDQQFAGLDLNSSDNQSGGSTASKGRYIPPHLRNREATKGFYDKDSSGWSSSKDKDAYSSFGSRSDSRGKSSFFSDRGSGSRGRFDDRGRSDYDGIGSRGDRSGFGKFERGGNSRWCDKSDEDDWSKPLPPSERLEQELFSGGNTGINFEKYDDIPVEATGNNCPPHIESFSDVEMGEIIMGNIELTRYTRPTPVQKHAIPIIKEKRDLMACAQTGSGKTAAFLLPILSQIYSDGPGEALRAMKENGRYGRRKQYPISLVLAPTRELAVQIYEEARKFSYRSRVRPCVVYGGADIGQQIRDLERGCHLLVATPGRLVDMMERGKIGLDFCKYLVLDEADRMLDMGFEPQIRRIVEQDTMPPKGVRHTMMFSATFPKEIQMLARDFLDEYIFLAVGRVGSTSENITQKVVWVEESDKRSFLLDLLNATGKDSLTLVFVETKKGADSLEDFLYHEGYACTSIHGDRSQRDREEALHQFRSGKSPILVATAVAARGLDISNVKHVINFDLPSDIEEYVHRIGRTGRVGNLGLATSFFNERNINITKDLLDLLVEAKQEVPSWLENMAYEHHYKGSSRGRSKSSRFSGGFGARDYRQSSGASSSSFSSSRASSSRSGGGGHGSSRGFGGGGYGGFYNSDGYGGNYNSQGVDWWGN
UniProt P35637: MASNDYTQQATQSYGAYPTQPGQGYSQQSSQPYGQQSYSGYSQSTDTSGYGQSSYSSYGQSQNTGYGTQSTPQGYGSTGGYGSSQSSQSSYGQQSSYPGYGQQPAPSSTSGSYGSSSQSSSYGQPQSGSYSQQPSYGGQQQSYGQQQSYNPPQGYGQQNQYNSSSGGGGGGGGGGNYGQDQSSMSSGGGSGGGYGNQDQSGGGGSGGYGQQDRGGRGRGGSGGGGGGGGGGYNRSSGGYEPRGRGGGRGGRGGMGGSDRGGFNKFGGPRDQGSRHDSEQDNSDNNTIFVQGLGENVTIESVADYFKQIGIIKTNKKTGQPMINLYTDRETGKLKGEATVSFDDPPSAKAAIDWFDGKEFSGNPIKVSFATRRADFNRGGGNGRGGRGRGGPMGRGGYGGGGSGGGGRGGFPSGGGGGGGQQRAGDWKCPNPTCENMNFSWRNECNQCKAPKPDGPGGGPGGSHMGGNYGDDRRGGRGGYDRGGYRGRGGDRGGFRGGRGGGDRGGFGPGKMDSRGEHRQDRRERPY

Results are given in words; binding and its absence hold for the method and conditions named. Binding seen in cells or lysates may run through a third protein. These calls come from enrichment with a bait or labelling near it, and not all partners need be listed.

This experiment has as its target Shiftless (SHFL, C19ORF66), endogenous in iSLK.WT cells (human (endogenous in iSLK.WT)) (UniProt Q9NUL5). Description: affinity purification with mass spectrometry.
Turning to DDX3X (from UniProt O00571 1-662), the binding entry is listed as “binds”. For FUS (from UniProt P35637 1-526) the value was “binds”; for HNRNPK (from UniProt P61978 1-463), “binds”.

“cytoplasmic poly(A) binding protein 1 (PABPC1) (from UniProt P11940 1-636)”: the binding result is “binds”.
